Data as given in US7399319B2, “Dyeing composition comprising a dye chosen from styryl and imine dyes and methods for dyeing keratin fibers” (L'Oreal S.A., priority 2005, dated 2008).

Columns and labels:
[1] = Dyeing of hair locks, colour measured in the CIE L*a*b* system; conditions: permanent-waved lock, 5 g per 1 g of hair, room temperature, 30 minutes; for DEa*b*: dye 3 × 10^−3 mol %, dyed vs non-dyed lock
[2] = as above; conditions: natural lock, 5 g per 1 g of hair, room temperature, 30 minutes; for DEa*b*: dye 3 × 10^−3 mol %, dyed vs non-dyed lock

SMILES: CN(C)c1ccc(C=CC23OCCN2c2ccc(-c4cccc[n+]4C)cc2C3(C)C)cc1 (stereo not shown)
- Color [1]: chromatic violet
- Color [2]: chromatic violet

SMILES: CC(=O)Nc1ccc(C=CC23OCCN2c2ccccc2C3(C)C)cc1 (stereo not shown) [Dye 6]
- Color [1]: yellow
- DEa*b* [1]: 47
- Color [2]: yellow
- DEa*b* [2]: 42

SMILES: CCn1c2ccccc2c2cc(C=CC34OCCN3c3ccccc3C4(C)C)ccc21 (stereo not shown) [Dye 5]
- Color [1]: red
- DEa*b* [1]: 43
- Color [2]: red
- DEa*b* [2]: 42

SMILES: CN(C)c1ccc(C=CC23OCCN2c2ccccc2C3(C)C)cc1 (stereo not shown) [Dye 1]
- Color [1]: fuchsia
- DEa*b* [1]: 57
- Color [2]: fuchsia
- DEa*b* [2]: 57

SMILES: CN(C)c1ccc(C=CC=CC23OCCN2c2ccccc2C3(C)C)cc1 (stereo not shown) [Dye 2]
- Color [1]: blue
- DEa*b* [1]: 57
- Color [2]: blue
- DEa*b* [2]: 54

SMILES: CN(C)c1ccc(C=CC23OCCN2c2ccc(S(C)(=O)=O)cc2C3(C)C)cc1 (stereo not shown) [Dye 3]
- Color [1]: violet
- DEa*b* [1]: 71
- Color [2]: violet
- DEa*b* [2]: 65
